Data on one compound can be found in patent US12502380B2, “MrgprX2 antagonists for the treatment of inflammatory disorders” (Dermira, Inc., priority 2019, dated 2025).

Amino acid sequences for entries named in this document (tags omitted).
UniProt Q96LB1, whole entry: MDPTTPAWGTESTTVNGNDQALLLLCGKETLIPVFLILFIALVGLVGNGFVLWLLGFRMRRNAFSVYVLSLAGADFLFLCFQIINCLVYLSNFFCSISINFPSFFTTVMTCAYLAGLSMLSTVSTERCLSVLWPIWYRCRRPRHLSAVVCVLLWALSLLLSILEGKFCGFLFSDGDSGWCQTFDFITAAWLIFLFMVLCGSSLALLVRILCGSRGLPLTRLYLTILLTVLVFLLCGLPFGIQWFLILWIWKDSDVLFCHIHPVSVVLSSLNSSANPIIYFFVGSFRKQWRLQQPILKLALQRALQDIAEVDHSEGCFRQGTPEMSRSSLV

The match of structure and compound is tentative.

The assay concerns the target Human MrgprX2 (Homo sapiens, UniProt Q96LB1). Put plainly: Human MrgprX2 antagonist FLIPR intracellular calcium mobilization assay. Conditions: antagonist activity, recombinant hMrgpMRGPRX2 expressing cells. From the text: Potent and selective hMrgpMRGPRX2 compounds have been generated from compounds identified during a high throughput screening (HTS) campaign and followed up with cycles of structure activity based medicinal chemistry efforts. These compounds were characterized in recombinant hMrgpMRGPRX2 expressing cells for their antagonist activity and the potency was confirmed in the human mast cell line LAD-2, where the target is endogenously expressed. The assays used to determine potencies are functional read-out looking at intracellular calcium mobilization using the FLIPR™ technology. In these FLIPR assays, we test the identified compounds using recombinant cellular systems expressing mouse MrgprB2, mouse MrgprA1, gerbil MrgpMRGPRX2 orthologue, Chinese hamster MrgpMRGPRX2 orthologue and cynomolgus monkey MrgpMRGPRX2 orthologue, respectively for orthologue activity.
Background: Calcium assays in cells follow changes in intracellular calcium, usually with a dye or a luminescent sensor.

As to `CC1(C(=O)Nc2ncc(Cc3cccc(F)c3)s2)CCS(=O)(=O)CC1`, the “Human MrgprX2 Antagonist pIC50” value is reported as 5.4.
